Laboratory results published in patent US20220412955A1, “A MODEL OF CLINICAL SYNERGY IN CANCER” (priority 2019, published 2022).
Some results were stated once for a whole list of compounds, not compound by compound.

Tested on: primary MM cells
Type: cell-based
Conditions: ex vivo, primary MM samples
Description: Each well was imaged every 30 minutes for a total duration of up to 6 days.

Row | Compound | time to induce LD50
1 | CC(C)C[C@H](NC(=O)[C@H](Cc1ccccc1)NC(=O)c1cnccn1)B(O)O [bortezomib] | less than 48 hours
2 | N[C@@H](Cc1ccc(N(CCCl)CCCl)cc1)C(=O)O [melphalan] | less than 48 hours
